Results reported in article PMC13070255.

By UniProt entry, the sequences of proteins in these tests, tags left out. Where a name states a change or a piece, a line headed by the entry shows the natural chain unless it says otherwise.
UniProt P06241: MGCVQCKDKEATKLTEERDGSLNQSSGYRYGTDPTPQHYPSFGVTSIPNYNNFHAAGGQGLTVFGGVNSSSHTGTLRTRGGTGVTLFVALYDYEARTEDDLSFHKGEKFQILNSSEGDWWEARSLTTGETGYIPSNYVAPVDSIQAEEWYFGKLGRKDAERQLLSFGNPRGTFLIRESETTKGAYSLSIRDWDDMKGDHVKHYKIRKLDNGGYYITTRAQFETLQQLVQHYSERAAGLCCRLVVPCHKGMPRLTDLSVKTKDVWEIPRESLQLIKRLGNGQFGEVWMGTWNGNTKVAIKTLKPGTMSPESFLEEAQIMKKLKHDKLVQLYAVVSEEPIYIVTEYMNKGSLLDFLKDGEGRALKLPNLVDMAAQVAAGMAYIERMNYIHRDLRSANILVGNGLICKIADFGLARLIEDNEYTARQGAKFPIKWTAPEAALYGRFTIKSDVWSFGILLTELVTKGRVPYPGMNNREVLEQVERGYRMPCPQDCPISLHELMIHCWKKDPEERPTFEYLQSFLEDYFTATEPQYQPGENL
UniProt P46940: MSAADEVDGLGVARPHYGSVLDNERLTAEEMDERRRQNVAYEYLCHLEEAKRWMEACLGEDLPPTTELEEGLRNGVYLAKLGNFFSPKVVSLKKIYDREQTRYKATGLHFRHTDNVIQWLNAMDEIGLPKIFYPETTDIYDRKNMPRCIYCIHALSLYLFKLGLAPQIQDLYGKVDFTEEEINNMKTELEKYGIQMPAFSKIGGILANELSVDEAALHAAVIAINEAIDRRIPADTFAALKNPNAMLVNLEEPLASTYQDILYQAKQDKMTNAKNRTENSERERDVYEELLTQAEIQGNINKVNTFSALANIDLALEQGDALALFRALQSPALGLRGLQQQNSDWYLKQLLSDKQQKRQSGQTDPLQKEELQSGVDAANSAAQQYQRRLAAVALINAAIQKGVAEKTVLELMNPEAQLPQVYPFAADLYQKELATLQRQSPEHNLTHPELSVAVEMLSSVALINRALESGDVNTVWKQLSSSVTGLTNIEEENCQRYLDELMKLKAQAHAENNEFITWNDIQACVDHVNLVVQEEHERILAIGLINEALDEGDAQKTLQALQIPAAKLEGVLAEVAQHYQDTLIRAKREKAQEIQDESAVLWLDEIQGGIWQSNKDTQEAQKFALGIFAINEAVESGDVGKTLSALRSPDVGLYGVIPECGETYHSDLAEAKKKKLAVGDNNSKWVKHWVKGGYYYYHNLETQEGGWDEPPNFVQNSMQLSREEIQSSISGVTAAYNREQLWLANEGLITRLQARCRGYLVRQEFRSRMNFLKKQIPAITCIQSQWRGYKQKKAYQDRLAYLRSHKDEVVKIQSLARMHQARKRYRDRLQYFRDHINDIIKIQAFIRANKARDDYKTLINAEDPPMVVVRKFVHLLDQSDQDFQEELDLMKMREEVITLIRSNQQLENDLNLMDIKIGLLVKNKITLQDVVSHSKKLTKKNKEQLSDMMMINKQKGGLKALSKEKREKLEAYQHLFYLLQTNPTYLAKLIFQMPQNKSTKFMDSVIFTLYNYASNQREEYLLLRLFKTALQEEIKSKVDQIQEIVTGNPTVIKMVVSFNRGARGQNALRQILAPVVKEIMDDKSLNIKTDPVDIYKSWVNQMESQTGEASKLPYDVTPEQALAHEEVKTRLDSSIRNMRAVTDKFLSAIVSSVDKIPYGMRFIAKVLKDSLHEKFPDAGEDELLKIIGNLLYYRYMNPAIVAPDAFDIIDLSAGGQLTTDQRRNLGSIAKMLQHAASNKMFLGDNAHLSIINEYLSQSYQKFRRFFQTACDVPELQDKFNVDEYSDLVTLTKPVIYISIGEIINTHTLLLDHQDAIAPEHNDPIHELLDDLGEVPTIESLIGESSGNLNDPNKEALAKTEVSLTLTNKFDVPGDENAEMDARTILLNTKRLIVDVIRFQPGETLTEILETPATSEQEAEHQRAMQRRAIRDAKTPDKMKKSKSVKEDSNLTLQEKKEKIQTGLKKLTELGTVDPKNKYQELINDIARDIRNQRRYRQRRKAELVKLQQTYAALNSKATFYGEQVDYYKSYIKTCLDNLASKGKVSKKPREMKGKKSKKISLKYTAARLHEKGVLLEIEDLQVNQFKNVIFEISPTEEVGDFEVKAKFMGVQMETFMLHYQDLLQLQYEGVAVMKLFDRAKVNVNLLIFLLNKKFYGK
UniProt P05556: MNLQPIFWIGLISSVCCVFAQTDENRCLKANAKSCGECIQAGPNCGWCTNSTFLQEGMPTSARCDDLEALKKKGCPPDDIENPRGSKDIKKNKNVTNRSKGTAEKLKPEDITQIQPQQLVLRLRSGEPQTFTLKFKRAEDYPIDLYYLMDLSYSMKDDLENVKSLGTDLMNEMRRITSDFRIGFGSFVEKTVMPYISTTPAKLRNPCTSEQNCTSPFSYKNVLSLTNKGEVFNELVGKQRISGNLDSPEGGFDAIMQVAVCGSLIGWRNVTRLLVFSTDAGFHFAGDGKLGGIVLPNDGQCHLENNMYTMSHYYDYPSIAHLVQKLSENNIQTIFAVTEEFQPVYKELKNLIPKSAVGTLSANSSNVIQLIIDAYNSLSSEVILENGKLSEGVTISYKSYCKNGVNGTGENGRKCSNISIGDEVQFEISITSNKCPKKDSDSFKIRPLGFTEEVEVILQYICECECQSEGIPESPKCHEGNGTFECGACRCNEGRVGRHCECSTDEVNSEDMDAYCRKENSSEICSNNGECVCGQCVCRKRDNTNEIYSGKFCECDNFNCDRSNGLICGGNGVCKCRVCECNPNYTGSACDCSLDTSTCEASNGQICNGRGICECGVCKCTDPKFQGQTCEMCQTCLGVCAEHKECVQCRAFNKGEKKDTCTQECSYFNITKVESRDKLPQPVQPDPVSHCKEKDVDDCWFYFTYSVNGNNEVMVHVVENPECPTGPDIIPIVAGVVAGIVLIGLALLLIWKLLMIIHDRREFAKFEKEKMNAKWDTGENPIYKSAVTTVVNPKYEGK
UniProt Q9BRR9: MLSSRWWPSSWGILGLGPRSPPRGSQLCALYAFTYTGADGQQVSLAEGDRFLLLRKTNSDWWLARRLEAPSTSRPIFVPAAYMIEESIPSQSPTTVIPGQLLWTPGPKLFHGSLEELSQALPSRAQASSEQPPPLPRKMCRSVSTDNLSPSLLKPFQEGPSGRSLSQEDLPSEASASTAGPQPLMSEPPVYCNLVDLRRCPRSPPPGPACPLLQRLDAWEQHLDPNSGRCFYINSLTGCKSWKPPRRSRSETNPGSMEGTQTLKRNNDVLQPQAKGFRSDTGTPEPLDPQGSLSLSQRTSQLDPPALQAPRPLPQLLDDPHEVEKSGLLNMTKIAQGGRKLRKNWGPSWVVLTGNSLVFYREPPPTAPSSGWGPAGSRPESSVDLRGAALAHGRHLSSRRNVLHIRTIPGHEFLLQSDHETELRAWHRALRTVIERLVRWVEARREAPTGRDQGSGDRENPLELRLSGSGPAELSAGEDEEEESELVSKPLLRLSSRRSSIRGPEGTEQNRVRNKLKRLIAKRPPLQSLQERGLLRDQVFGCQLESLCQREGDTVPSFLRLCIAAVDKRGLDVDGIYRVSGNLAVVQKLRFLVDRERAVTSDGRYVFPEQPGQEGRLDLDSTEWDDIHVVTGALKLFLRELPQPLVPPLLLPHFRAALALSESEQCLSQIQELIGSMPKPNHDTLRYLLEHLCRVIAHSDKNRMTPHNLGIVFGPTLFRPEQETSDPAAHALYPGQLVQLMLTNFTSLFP
UniProt Q8IUD2: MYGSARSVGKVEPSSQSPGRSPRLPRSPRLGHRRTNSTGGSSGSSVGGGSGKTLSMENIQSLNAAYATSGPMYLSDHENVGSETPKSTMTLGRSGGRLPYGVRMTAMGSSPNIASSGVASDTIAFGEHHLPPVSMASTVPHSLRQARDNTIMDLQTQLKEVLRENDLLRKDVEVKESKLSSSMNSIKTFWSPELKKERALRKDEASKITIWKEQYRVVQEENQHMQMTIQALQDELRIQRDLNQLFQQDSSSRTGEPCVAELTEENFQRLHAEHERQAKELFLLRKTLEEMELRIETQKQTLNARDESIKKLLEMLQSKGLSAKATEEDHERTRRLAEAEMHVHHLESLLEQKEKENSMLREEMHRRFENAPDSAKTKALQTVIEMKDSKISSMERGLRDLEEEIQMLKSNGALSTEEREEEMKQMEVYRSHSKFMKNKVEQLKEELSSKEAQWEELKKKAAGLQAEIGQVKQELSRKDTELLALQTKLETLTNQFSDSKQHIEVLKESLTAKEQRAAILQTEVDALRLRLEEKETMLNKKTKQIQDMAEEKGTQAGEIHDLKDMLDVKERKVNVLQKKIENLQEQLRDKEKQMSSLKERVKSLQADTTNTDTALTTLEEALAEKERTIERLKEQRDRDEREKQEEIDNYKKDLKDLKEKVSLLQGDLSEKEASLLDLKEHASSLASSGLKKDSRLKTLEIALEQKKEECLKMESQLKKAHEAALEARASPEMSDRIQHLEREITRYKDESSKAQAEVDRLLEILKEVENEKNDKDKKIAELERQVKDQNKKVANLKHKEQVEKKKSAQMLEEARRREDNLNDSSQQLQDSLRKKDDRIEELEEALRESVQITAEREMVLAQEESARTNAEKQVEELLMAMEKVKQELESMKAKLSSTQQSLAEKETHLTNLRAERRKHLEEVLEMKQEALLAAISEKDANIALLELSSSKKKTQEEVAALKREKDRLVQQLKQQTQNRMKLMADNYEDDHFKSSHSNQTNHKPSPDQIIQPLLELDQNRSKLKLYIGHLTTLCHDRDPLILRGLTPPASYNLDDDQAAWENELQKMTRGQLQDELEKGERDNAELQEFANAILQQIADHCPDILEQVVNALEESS
UniProt Q13418: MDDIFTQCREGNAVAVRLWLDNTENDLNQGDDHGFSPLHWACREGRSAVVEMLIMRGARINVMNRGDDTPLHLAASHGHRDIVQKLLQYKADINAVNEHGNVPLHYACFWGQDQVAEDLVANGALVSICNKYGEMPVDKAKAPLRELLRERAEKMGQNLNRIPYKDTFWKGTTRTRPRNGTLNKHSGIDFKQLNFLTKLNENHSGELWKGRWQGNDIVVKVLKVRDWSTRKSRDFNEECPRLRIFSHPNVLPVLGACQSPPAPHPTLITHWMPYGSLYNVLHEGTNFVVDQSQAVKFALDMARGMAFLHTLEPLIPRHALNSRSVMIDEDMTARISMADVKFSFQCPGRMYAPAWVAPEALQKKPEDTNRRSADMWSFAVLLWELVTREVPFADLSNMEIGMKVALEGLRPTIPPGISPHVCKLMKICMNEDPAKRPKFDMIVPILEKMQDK
UniProt O95819: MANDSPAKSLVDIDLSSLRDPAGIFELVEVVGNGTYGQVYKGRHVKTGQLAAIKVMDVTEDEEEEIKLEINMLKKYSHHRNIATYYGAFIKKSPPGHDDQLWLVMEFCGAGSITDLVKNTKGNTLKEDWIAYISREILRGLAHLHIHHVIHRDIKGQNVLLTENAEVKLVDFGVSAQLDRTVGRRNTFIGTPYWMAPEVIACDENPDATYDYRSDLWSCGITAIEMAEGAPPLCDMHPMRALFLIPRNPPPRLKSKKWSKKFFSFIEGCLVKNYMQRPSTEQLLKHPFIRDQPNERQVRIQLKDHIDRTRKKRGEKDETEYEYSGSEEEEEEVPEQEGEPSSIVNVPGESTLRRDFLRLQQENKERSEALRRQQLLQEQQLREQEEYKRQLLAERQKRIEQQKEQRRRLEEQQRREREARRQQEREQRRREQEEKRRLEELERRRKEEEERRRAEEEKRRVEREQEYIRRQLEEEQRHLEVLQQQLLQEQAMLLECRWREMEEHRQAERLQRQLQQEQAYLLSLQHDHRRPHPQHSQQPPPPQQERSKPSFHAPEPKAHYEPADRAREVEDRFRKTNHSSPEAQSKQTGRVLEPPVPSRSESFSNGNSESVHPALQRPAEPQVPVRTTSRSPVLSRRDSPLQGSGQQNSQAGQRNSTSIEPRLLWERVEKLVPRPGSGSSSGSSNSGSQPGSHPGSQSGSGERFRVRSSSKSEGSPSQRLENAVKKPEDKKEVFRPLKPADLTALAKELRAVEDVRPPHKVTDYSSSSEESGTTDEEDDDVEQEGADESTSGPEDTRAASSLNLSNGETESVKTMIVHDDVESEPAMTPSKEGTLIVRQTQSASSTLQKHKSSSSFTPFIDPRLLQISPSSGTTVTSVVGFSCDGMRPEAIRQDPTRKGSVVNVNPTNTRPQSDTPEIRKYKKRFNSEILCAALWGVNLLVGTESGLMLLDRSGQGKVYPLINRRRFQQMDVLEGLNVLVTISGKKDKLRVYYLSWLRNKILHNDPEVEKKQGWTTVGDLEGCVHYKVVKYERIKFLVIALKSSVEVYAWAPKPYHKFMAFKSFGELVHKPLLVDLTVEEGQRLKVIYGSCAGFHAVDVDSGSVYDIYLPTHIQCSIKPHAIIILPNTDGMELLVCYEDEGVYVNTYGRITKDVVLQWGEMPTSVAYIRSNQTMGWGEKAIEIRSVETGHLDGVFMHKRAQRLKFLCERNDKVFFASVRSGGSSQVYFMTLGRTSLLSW

T1: HA–MERTK (MERTK with an extracellular HA tag) (human) (UniProt Q12866)
T1 sequence: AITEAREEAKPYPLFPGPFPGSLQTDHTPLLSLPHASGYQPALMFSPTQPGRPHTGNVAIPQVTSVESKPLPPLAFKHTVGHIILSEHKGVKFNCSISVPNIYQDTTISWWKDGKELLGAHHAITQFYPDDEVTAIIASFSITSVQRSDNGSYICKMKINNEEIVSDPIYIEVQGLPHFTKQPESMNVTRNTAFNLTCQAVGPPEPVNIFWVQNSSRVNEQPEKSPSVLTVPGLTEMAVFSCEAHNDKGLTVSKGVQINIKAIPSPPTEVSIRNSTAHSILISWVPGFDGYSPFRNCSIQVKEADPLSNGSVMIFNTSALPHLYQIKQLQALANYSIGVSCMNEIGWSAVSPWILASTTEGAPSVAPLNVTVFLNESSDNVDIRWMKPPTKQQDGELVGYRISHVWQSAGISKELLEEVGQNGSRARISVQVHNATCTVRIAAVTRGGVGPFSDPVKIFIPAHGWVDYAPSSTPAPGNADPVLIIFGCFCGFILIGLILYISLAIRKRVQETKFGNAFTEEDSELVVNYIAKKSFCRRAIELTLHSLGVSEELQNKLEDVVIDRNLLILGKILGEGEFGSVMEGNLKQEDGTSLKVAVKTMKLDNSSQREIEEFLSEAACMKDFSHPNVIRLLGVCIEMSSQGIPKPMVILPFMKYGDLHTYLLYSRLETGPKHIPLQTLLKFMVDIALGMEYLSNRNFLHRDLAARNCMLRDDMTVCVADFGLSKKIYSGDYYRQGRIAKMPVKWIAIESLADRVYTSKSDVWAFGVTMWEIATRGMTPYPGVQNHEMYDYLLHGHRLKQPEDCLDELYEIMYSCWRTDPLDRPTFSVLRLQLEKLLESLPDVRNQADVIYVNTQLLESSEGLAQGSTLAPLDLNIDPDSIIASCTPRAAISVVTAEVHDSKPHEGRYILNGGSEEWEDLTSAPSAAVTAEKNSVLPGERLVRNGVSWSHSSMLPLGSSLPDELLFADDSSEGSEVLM


These molecules were tested against T1, HA–MERTK (MERTK with an extracellular HA tag) (human) (assay: affinity purification with mass spectrometry; resting HA–MERTK-expressing cells reversibly cross-linked (ReCLIP: 0.5 mM DSP and 1.0 mM DTME, 20 min, room temperature), lysed in RIPA buffer; anti-HA with Protein A/G beads against an isotype control, 4°C; bands unique to the anti-HA lane cut from SDS-PAGE, trypsin, AB Sciex 5800 TOF/TOF, MASCOT; only proteins present in three independent experiments).

binding | Molecule
binds | PIP4K2B (enzyme, UniProt P78356 1-416) MSSNCTSTTAVAVAPLSASKTKTKKKHFVCQKVKLFRASEPILSVLMWGVNHTINELSNVPVPVMLMPDDFKAYSKIKVDNHLFNKENLPSRFKFKEYCPMVFRNLRERFGIDDQDYQNSVTRSAPINSDSQGRCGTRFLTTYDRRFVIKTVSSEDVAEMHNILKKYHQFIVECHGNTLLPQFLGMYRLTVDGVETYMVVTRNVFSHRLTVHRKYDLKGSTVAREASDKEKAKDLPTFKDNDFLNEGQKLHVGEESKKNFLEKLKRDVEFLAQLKIMDYSLLVGIHDVDRAEQEEMEVEERAEDEECENDGVGGNLLCSYGTPPDSPGNLLSFPRFFGPGEFDPSVDVYAMKSHESSPKKEVYFMAIIDILTPYDTKKKAAHAAKTVKHGAGAEISTVNPEQYSKRFNEFMSNILT
binds | PI42C (enzyme, UniProt Q8TBX8 1-421) MASSSVPPATVSAATAGPGPGFGFASKTKKKHFVQQKVKVFRAADPLVGVFLWGVAHSINELSQVPPPVMLLPDDFKASSKIKVNNHLFHRENLPSHFKFKEYCPQVFRNLRDRFGIDDQDYLVSLTRNPPSESEGSDGRFLISYDRTLVIKEVSSEDIADMHSNLSNYHQYIVKCHGNTLLPQFLGMYRVSVDNEDSYMLVMRNMFSHRLPVHRKYDLKGSLVSREASDKEKVKELPTLKDMDFLNKNQKVYIGEEEKKIFLEKLKRDVEFLVQLKIMDYSLLLGIHDIIRGSEPEEEAPVREDESEVDGDCSLTGPPALVGSYGTSPEGIGGYIHSHRPLGPGEFESFIDVYAIRSAEGAPQKEVYFMGLIDILTQYDAKKKAAHAAKTVKHGAGAEISTVHPEQYAKRFLDFITNIFA

More lines, now with the values behind:

Molecule | binding
RhoE (protein, UniProt P61587 1-244) MKERRASQKLSSKSIMDPNQNVKCKIVVVGDSQCGKTALLHVFAKDCFPENYVPTVFENYTASFEIDTQRIELSLWDTSGSPYYDNVRPLSYPDSDAVLICFDISRPETLDSVLKKWKGEIQEFCPNTKMLLVGCKSDLRTDVSTLVELSNHRQTPVSYDQGANMAKQIGAATYIECSALQSENSVRDIFHVATLACVNKTNKNVKRNKSQRATKRISHMPSRPELSAVATDLRKDKAKSCTVM | binds
RASA2 (protein, UniProt Q15283 1-850) MAAAAPAAAAASSEAPAASATAEPEAGDQDSREVRVLQSLRGKICEAKNLLPYLGPHKMRDCFCTINLDQEEVYRTQVVEKSLSPFFSEEFYFEIPRTFQYLSFYVYDKNVLQRDLRIGKVAIKKEDLCNHSGKETWFSLQPVDSNSEVQGKVHLELKLNELITENGTVCQQLVVHIKACHGLPLINGQSCDPYATVSLVGPSRNDQKKTKVKKKTSNPQFNEIFYFEVTRSSSYTRKSQFQVEEEDIEKLEIRIDLWNNGNLVQDVFLGEIKVPVNVLRTDSSHQAWYLLQPRDNGNKSSKTDDLGSLRLNICYTEDYVLPSEYYGPLKTLLLKSPDVQPISASAAYILSEICRDKNDAVLPLVRLLLHHDKLVPFATAVAELDLKDTQDANTIFRGNSLATRCLDEMMKIVGGHYLKVTLKPILDEICDSSKSCEIDPIKLKEGDNVENNKENLRYYVDKLFNTIVKSSMSCPTVMCDIFYSLRQMATQRFPNDPHVQYSAVSSFVFLRFFAVAVVSPHTFHLRPHHPDAQTIRTLTLISKTIQTLGSWGSLSKSKSSFKETFMCEFFKMFQEEGYIIAVKKFLDEISSTETKESSGTSEPVHLKEGEMYKRAQGRTRIGKKNFKKRWFCLTSRELTYHKQPGSKDAIYTIPVKNILAVEKLEESSFNKKNMFQVIHTEKPLYVQANNCVEANEWIDVLCRVSRCNQNRLSFYHPSVYLNGNWLCCQETGENTLGCKPCTAGVPADIQIDIDEDRETERIYSLFTLSLLKLQKMEEACGTIAVYQGPQKEPDDYSNFVIEDSVTTFKTIQQIKSIIEKLDEPHEKYRKKRSSSAKYGSKENPIVGKAS | binds

Biological target: T1, HA–MERTK (MERTK with an extracellular HA tag) (human)
Assay: as above
Remark: another data set of the same source

binding | Molecule
binds | Fyn (from UniProt P06241 1-537) (enzyme)
binds | IQGAP1 (from UniProt P46940 1-1657)
binds | PI3R4 (from UniProt Q99570 1-1358)
binds | β1 integrin (from UniProt P05556 21-798) (receptor)

Continued, molecule first:

Molecule | binding
AKAP9 (from UniProt Q99996 1-3907) | binds
ARHGAP9 (from UniProt Q9BRR9 1-750) | binds
Erc1 (from UniProt Q8IUD2 1-1116) | binds
Fgr (from UniProt P09769 1-529) (enzyme) | binds
Grb2 (from UniProt P62993 1-217) | no binding
ILK (from UniProt Q13418 1-452) | binds
MAP4K4 (from UniProt O95819 1-1239) (enzyme) | binds

Results are given in words; binding and its absence hold for the method and conditions named. In cells and extracts the contact can be indirect. Here binding means that the protein was enriched with, or labelled near, the bait; the list need not be complete. For part of these data: A no says only that the protein was not detected with the bait. Where a sequence is shown, tags or fusion partners need not be part of it.
